{"source": "PubChem BioAssay AID504784 | Drosophila RNAi Screening Center, 2011", "test": "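Genome-wide knock-down for genes giving too much or too little stored lipid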 (primary screen)", "system": "Drosophila Kc167 embryonic cells", "knock-down reagent": "long dsRNA against Drosophila genes, about 250 ng dsRNA per well", "timing": "4 days", "treatment": "cells fed 400 µM oleic acid bound to BSA", "detection": "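Microscope images give a droplet-to-nucleus area ratio, taken as log and converted to a screen-wide B-score; higher values mean greater lipid storage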", "scale": "droplet/nuclear area B-score: higher = more stored lipid (overstorage)", "note": "In all, the deposit lists about 17,000 reagents; shown is a random part of those that have a named target and a result. 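Each column is one replicate's B-score; the combined score over replicates was not deposited, so single values may mislead.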 The numbers tell different reagents against one gene apart. A plus sign joins genes that one reagent is predicted to hit. Not all columns of the deposit are shown."}
{"predicted target": "BORCS7 + CG13430", "reagent no.": 1, "droplet/nuclear area B-score, replicate 1": -0.00295}
{"predicted target": "BORCS7 + CG13430", "reagent no.": 2, "droplet/nuclear area B-score, replicate 1": 1.08}
{"predicted target": "CG42404", "reagent no.": 1, "droplet/nuclear area B-score, replicate 1": 2.63}
{"predicted target": "Su(var)205", "reagent no.": 1, "droplet/nuclear area B-score, replicate 1": -1.86}
{"predicted target": "CG13133", "reagent no.": 1, "droplet/nuclear area B-score, replicate 1": 0.0247}
{"predicted target": "Septin2", "reagent no.": 1, "droplet/nuclear area B-score, replicate 1": 3.88}
{"predicted target": "Cpr66D", "reagent no.": 1, "droplet/nuclear area B-score, replicate 1": -0.0207}
{"predicted target": "Cpr66D", "reagent no.": 2, "droplet/nuclear area B-score, replicate 1": 0.868}
{"predicted target": "Cpr66D", "reagent no.": 3, "droplet/nuclear area B-score, replicate 1": 0.0151}
{"predicted target": "Rs1", "reagent no.": 1, "droplet/nuclear area B-score, replicate 1": -0.752}
{"predicted target": "CG14109", "reagent no.": 1, "droplet/nuclear area B-score, replicate 1": -0.00453}
{"predicted target": "CDK2AP1", "reagent no.": 1, "droplet/nuclear area B-score, replicate 1": 0.654}
{"predicted target": "CG31007", "reagent no.": 1, "droplet/nuclear area B-score, replicate 1": 1.64}
{"predicted target": "CG17122", "reagent no.": 1, "droplet/nuclear area B-score, replicate 1": -0.265}
{"predicted target": "CG30016", "reagent no.": 1, "droplet/nuclear area B-score, replicate 1": 2.22}
{"predicted target": "CG15673", "reagent no.": 1, "droplet/nuclear area B-score, replicate 1": -0.0309}
{"predicted target": "lectin-37Da", "reagent no.": 1, "droplet/nuclear area B-score, replicate 1": 2.33}
{"predicted target": "lectin-37Da", "reagent no.": 2, "droplet/nuclear area B-score, replicate 1": -4.42}
{"predicted target": "Fib", "reagent no.": 1, "droplet/nuclear area B-score, replicate 1": -0.0475}
{"predicted target": "CG4646", "reagent no.": 1, "droplet/nuclear area B-score, replicate 1": 0.542}
{"predicted target": "CG10628", "reagent no.": 1, "droplet/nuclear area B-score, replicate 1": 0.0212}
{"predicted target": "CG7091", "reagent no.": 1, "droplet/nuclear area B-score, replicate 1": 0.038}
{"predicted target": "CG7091", "reagent no.": 2, "droplet/nuclear area B-score, replicate 1": -1.68}
{"predicted target": "Traf4", "reagent no.": 1, "droplet/nuclear area B-score, replicate 1": -0.0452}
{"predicted target": "Traf4", "reagent no.": 2, "droplet/nuclear area B-score, replicate 1": 0.0509}
{"predicted target": "LysE", "reagent no.": 1, "droplet/nuclear area B-score, replicate 1": -1.36}
{"predicted target": "CG14607", "reagent no.": 1, "droplet/nuclear area B-score, replicate 1": 1.35}
{"predicted target": "PGAP5", "reagent no.": 1, "droplet/nuclear area B-score, replicate 1": 0.298}
{"predicted target": "myd", "reagent no.": 1, "droplet/nuclear area B-score, replicate 1": 1.86}
{"predicted target": "myd", "reagent no.": 2, "droplet/nuclear area B-score, replicate 1": -0.343}
{"predicted target": "CG31647 (retired record)", "reagent no.": 1, "droplet/nuclear area B-score, replicate 1": -1.61}
{"predicted target": "CG14492", "reagent no.": 1, "droplet/nuclear area B-score, replicate 1": -1.16}
{"predicted target": "CG12395", "reagent no.": 1, "droplet/nuclear area B-score, replicate 1": 0.444}
{"predicted target": "Kap-alpha3", "reagent no.": 1, "droplet/nuclear area B-score, replicate 1": 0.655}
{"predicted target": "Ts", "reagent no.": 1, "droplet/nuclear area B-score, replicate 1": 0.942}
{"predicted target": "Ts", "reagent no.": 2, "droplet/nuclear area B-score, replicate 1": -0.178}
{"predicted target": "Rab30", "reagent no.": 1, "droplet/nuclear area B-score, replicate 1": 0.288}
{"predicted target": "CG33189", "reagent no.": 1, "droplet/nuclear area B-score, replicate 1": 1.06}
{"predicted target": "CG13186", "reagent no.": 1, "droplet/nuclear area B-score, replicate 1": -2.45}
{"predicted target": "Cpr31A", "reagent no.": 1, "droplet/nuclear area B-score, replicate 1": -0.0285}

Ordered by “droplet/nuclear area B-score, replicate 1” (high to low): some entries from above
{"predicted target": "myd", "reagent no.": 1, "droplet/nuclear area B-score, replicate 1": 1.86}
{"predicted target": "CG14607", "reagent no.": 1, "droplet/nuclear area B-score, replicate 1": 1.35}
{"predicted target": "PGAP5", "reagent no.": 1, "droplet/nuclear area B-score, replicate 1": 0.298}
{"predicted target": "Traf4", "reagent no.": 2, "droplet/nuclear area B-score, replicate 1": 0.0509}
{"predicted target": "LysE", "reagent no.": 1, "droplet/nuclear area B-score, replicate 1": -1.36}
